These are yes or no findings as the source states them, for the method shown. Binding can be weak; no strength is given.
Target: Recombinant MMP-9 (rMMP-9) human (human) (UniProt P14780)
Assay: AlphaScreen or HTRF; AlphaLISA no-wash sandwich immunoassay: MMP-9 captured by anti-MMP-9 antibody on acceptor beads, TIMP-1 by biotinylated anti-TIMP-1 antibody on streptavidin donor beads; cross-titration of recombinant proteins at 0, 30, 100, 300 and 1,000 ng/mL each, pre-incubated 60 min at room temperature; assay buffer HEPES, NaCl, BSA, Tween-20, pH 7.4; also tested with H2O2; both purified

Sequences of proteins named here, by UniProt entry; tags and fusion partners are left off. A change or cut given only in a name is not applied to a line headed by its entry. Residues count along the entry.
UniProt P14780: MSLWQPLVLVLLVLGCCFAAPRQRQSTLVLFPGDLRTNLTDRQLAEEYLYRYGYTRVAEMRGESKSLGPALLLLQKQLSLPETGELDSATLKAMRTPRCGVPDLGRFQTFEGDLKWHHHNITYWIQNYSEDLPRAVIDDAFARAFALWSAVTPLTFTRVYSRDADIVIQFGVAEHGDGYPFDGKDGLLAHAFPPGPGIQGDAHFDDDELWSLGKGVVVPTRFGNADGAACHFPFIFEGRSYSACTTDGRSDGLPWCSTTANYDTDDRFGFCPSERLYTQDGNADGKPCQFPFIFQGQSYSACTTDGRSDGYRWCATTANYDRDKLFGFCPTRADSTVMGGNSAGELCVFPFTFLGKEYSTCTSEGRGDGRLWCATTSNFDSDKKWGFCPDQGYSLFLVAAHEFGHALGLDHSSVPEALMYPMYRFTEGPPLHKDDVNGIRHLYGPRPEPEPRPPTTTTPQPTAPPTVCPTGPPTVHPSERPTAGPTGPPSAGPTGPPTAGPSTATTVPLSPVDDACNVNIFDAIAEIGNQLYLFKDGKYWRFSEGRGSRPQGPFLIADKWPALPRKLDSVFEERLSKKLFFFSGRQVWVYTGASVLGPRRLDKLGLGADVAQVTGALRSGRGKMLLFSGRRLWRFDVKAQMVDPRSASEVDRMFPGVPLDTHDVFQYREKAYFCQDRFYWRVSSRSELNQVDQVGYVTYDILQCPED
UniProt P01033, residues 24-207: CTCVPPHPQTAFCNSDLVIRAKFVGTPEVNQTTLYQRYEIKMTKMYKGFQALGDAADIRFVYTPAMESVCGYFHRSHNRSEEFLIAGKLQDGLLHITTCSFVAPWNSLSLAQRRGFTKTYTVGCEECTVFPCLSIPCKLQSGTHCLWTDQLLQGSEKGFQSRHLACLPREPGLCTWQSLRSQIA

- binding: binds
Substance: Recombinant TIMP-1 (rTIMP-1) human (from UniProt P01033 24-207)

Reference: article PMC5523156
